Laboratory results taken from article PMC10580587.
No constants are given. Whether binding was seen depends on the method and setting. Binding seen in cells or lysates may run through a third protein. Where a sequence is shown, tags or fusion partners need not be part of it.

Amino acid sequences for entries named in this document (tags omitted).
UniProt P84022: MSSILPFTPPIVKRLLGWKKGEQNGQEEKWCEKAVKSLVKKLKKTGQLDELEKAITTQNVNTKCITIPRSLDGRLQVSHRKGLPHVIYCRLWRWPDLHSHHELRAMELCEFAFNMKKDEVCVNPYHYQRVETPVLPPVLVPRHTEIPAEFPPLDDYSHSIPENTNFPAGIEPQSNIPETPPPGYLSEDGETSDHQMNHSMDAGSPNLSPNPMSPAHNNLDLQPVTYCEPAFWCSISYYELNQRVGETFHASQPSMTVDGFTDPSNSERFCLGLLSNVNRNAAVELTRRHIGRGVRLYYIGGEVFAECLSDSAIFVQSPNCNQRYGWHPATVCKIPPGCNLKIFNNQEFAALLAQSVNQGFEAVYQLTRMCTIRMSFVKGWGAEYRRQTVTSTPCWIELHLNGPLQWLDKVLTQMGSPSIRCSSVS

Molecular target: flag-HA-tagged SMAD3 (UniProt P84022)
Experiment: co-IP; Hela cells cotransfected with flag-HA-tagged SMAD3 or SMAD4 and HA-tagged CSRP2BP; lysate incubated with anti-flag antibody (or control normal IgG) at 4 °C for 2 h, precipitated with protein A/G; Western blotting with anti-HA antibody

binding: no binding
B1: HA-tagged CSRP2BP (protein, UniProt Q9H8E8 1-782)
chain: MDSSIHLSSLISRHDDEATRTSTSEGLEEGEVEGETLLIVESEDQASVDLSHDQSGDSLNSDEGDVSWMEEQLSYFCDKCQKWIPASQLREQLSYLKGDNFFRFTCSDCSADGKEQYERLKLTWQQVVMLAMYNLSLEGSGRQGYFRWKEDICAFIEKHWTFLLGNRKKTSTWWSTVAGCLSVGSPMYFRSGAQEFGEPGWWKLVHNKPPTMKPEGEKLSASTLKIKAASKPTLDPIITVEGLRKRASRNPVESAMELKEKRSRTQEAKDIRRAQKEAAGFLDRSTSSTPVKFISRGRRPDVILEKGEVIDFSSLSSSDRTPLTSPSPSPSLDFSAPGTPASHSATPSLLSEADLIPDVMPPQALFHDDDEMEGDGVIDPGMEYVPPPAGSVASGPVVGVRKKVRGPEQIKQEVESEEEKPDRMDIDSEDTDSNTSLQTRAREKRKPQLEKDTKPKEPRYTPVSIYEEKLLLKRLEACPGAVAMTPEARRLKRKLIVRQAKRDRGLPLFDLDQVVNAALLLVDGIYGAKEGGISRLPAGQATYRTTCQDFRILDRYQTSLPSRKGFRHQTTKFLYRLVGSEDMAVDQSIVSPYTSRILKPYIRRDYETKPPKLQLLSQIRSHLHRSDPHWTPEPDAPLDYCYVRPNHIPTINSMCQEFFWPGIDLSECLQYPDFSVVVLYKKVIIAFGFMVPDVKYNEAYISFLFVHPEWRRAGIATFMIYHLIQTCMGKDVTLHVSASNPAMLLYQKFGFKTEEYVLDFYDKYYPLESTECKHAFFLRLRR
